Laboratory results: the supplement of paper PMC3334620
In all, about 33,000 sequences were measured (“E-score (-0.5 to 0.5)”: median about -8e-05, highest 2% from about 0.23 on). The list shows a part of the results.

These sequences were tested against T1, Nrg2 (UniProt P38082) (assay: PBM E-score (8-mer binding enrichment) (E-score (-0.5 to 0.5)); higher = stronger / more preferred TF binding). Conditions: protein concentration: 100 nM; construct: GST-full length.
T1 sequence: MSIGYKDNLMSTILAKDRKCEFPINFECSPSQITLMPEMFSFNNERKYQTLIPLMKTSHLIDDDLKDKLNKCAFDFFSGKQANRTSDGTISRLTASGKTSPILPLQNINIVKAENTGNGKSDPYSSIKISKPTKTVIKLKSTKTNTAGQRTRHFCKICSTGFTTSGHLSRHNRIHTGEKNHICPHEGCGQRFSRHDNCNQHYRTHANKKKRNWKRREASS
In short: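 Universal all-10-mer Agilent arrays, double-stranded by primer extension on fresh or once-stripped slides, were probed with about 100-200 nM GST-tagged yeast transcription factors made by PURExpress. Fluorescent anti-GST detected bound protein, and masliner normalised the scans. E-scores from the Universal PBM Analysis Suite were given to each ungapped eight-base word pooled with its reverse complement.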

Sequence | PBM E-score
CCGTACCG | -0.293
ATTTAGAA | 0.0479
CTGGTCAA | 0.0409
CTAGACCA | -0.131
AAGTCTCA | -0.0124
AACGCATC | -0.131
CTAATGAA | 0.149
AAAGATAG | -0.188
AGTTAAGC | 0.029
ACTAACAC | 0.062
CGCGAAAA | 0.193
CTTTTGAA | -0.0196
CCTAATCG | 0.16
CTTGGAGA | 0.00437
ATAATACG | 0.18
CACTCACG | 0.0689
ACATACTG | 0.0364
CAGGCCCG | -0.209
AACGGAAA | 0.13
CGGTGCTC | 0.0363
CTTCTCCC | -0.189
AGTCTCGA | -0.131
GTCCAGCA | -0.101
CTGATACC | 0.00659
TCGCGTAA | 0.143

Sequence | PBM E-score
CGGCGCTC | -0.0921
GACTCATA | -0.0851
AGAAATCG | 0.0626
GTACTGAC | -0.0272
ACATACCT | -0.111
GCGATTCC | 0.169
CTTACAAG | -0.213
AAATTTGA | 0.0547
CCCCGTTA | -0.05
CAGCCCAG | -0.181
AGGAGGTC | -0.313
AACGCTCT | -0.26
AACTACGG | -0.043
CGATCTTC | 0.0437
AGATGGTC | -0.0423
TATTCCCA | 0.0218
CAGAGTCA | -0.132
GGCCCTAA | 0.138
CGGATCCG | -0.035
TATAGGGA | -0.0294
GCGGGTCA | 0.138
AGCCGTTA | -0.0174
CACCCGCG | 0.169
CGGGCAGC | 0.0778
GCCGCGGA | -0.00587

Three entries picked at random from the list so far:
Sequence | PBM E-score
CGGATCCG | -0.035
AGGAGGTC | -0.313
CCCCGTTA | -0.05

(listing goes on)

Sequence | PBM E-score
CTAGTCAG | -0.0488
GAGACTAA | -0.027
CCTAAGGA | 0.118
AGGCGACT | -0.228
CCCTATGC | 0.102
ACTTCGGA | 0.14
AGAAAGCG | 0.0347
CGTAATCA | 0.198
AGTGTCTA | -0.0413
CCGCCCCA | 0.0998
ACTCCCCA | -0.0321
GTGGCAAC | -0.0138
ATGGGTAA | 0.0324
CTTACTCC | -0.0492
CAACACCG | -0.0448
CTATAGTC | -0.141
AACCGTAT | -0.248
ATTCCTCG | 0.0752
AAGAGTAA | 0.0215
ACTTACAA | 0.0529
CAAACGGC | -0.0212
CCGGCATC | -0.191
AAGCTGAC | -0.148
CCTGTGAC | -0.0251
ATTGAAGG | -0.178

Sequence | PBM E-score
AGCGTAGC | -0.0469
GAGATTGC | -0.125
GCAGAGTA | 0.00217
CTCCGCCC | -0.103
CCTTCGTC | -0.143
AATAGCGG | -0.132
GAGTATTA | 0.00698
GAGCCCGA | -0.0829
ACCGCAGT | 0.00709
ACCGACCC | 0.00933
AACCACTG | 0.0489
AAAAGGAC | 0.0484
CCGAACCA | -0.00203
TCGGAGCA | -0.226
AAATGCCG | 0.071
AATGATTC | 0.122
CCCTCTAC | -0.156
ACCTGAGA | 0.0535
AGCCCGCA | -0.0126
AACCTTGG | -0.00283
CGCATTAA | 0.0849
CCTCCTGC | -0.165
CAACCCAG | -0.111
CTGGACAA | 0.00924
CGACAAAA | 0.227

Sequence | PBM E-score
ACCACCGA | 0.0535
GGTTCAGA | 0.0397
GGTTTTGA | 0.148
TCTGCCCA | -0.137
AGTGCGAT | 0.0799
TCAATAAA | -0.0825
CCGATACC | 0.075
TCCAGAGA | -0.144
CTTTTGGA | -0.0553
AGAGGACC | -0.116
CCCTCACA | -0.0171
ACCATCTC | 0.0848
ATTCAGGA | 0.117
ATAGAGGC | -0.245
CCATATGA | 0.0683
GCATGGTA | -0.0382
AAAGAACT | 0.0858
AGTATCGC | 0.133
CTTCACGA | -0.206
GTATCGAA | 0.123
CTTTTCGA | 0.138
CGAACAAA | 0.279
TATTCGCA | 0.187
CCCACCGC | 0.0113
CAGCGAAG | -0.189

As entered above.
Entry of AGTGCGAT under PBM E-score: 0.0799
Entry of GTATCGAA under PBM E-score: 0.123

Two entries from above, tab-delimited:
Sequence	PBM E-score
CCCTCACA	-0.0171
ACCATCTC	0.0848

Next part:

Sequence | PBM E-score
GACCTCAA | 0.00066
ATCTCCTG | 0.0324
GCGGCGCC | 0.176
GCTCGAAA | 0.168
GCACGCCA | -0.156
ATTGTTCG | 0.189
CAACCGAG | 0.0557
TCTCTAAA | -0.134
TGGACACA | -0.108
GCAGGGTA | 0.164
ATGAGGTG | 0.0401
AATCCCTG | 0.278
ACTACACT | -0.147
ACGATAAC | 0.0465
ATCGCTCG | 0.0845
ACTGGAAC | 0.0198
TTTATAAA | 0.245
AAGCCAGT | -0.169
AGTCGATG | 0.00397
AAGACGAG | -0.17
ACTCGCGG | -0.0227
AGGGAGGC | -0.295
ATGTCACG | -0.0777
CGATGATC | -0.0749
GAGGCAAA | 0.115

Sequence | PBM E-score
GACGGTGC | -0.139
AGCGTTGA | 0.0457
GTGGCCAC | 0.156
ACTGCATC | 0.146
CGGTTAAA | 0.0194
GAGGTTGA | -0.166
CCTAGCGA | -0.113
ATTATAAA | 0.0896
AATTTGAC | 0.127
GACTCAGA | -0.129
AAGCCCCG | -0.0541
TACCGAGA | -0.00359
CAGACCAC | 0.0231
TTGAGCAA | -0.111
GAGTACGC | -0.12
GCAGAGAC | -0.235
CTGGGTAC | 0.0272
AGTGGAAC | 0.038
ACGGTAGG | -0.145
AGGTCACT | -0.192
AGCGAACC | 0.0466
TAAACCTA | 0.0795
